Source: publication doi:10.1101/2023.10.06.561273, “Bacterial cell surface nanoenvironment requires a specialized chaperone to activate a peptidoglycan biosynthetic enzyme” (bioRxiv, 2023)

Target: T1, FLAG-tagged SpoVK harboring a disrupted Walker B motif (SpoVK^B*-FLAG) (B. subtilis) (UniProt P27643)
T1 sequence: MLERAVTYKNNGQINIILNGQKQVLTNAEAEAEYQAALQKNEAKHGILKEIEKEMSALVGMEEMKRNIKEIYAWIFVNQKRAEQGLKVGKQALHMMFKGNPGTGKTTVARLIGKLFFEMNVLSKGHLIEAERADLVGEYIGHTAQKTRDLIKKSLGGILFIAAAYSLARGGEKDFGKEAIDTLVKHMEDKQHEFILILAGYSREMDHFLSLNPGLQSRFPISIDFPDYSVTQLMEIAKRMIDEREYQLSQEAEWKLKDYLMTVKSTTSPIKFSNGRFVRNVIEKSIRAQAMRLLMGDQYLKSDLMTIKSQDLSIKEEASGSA
Experiment: affinity purification with mass spectrometry; anti-FLAG magnetic beads on extracts of B. subtilis 4 h after induction of sporulation (cells with SpoVID, or ΔspoVID cells); binding buffer 50 mM Tris-HCl pH 7.5, 150 mM NaCl, 7.5% glycerol, 0.2% Triton-X-100, 4 °C, 1 h; eluate on silver-stained SDS-PAGE, bands digested with trypsin and identified by mass spectrometry

B1: SpoVID (protein, UniProt P37963 1-575)
chain: MPQNHRLQFSVEESICFQKGQEVSELLSISLDPDIRVQEVNDYVSIIGSLELTGEYNIDQNKHTEEIYTDKRFVEQVRKREDGSAELTHCFPVDITIPKNKVSHLQDVFVFIDAFDYQLTDSRILTIQADLAIEGLLDDTQDKEPEIPLYEAPAAFREEELSEPPAHSVVEEPGASSAEEAVLQHEPPAEPPELFISKAGLREELETEKAESEPPESVASEPEAREDVKEEEESEELAVPETEVRAESETEESEPEPDPSEIEIQEIVKAKKETAEPAAAIADVREEADSPAETELREHVGAEESPALEAELHSETVIAKEKEETTVSPNHEYALRQEAQNEEAAQSDQADPALCQEEAEPDEALESVSEAALSIEDSRETASAVYMENDNADLHFHFNQKTSSEEASQEELPEPAYRTFLPEQEEEDSFYSAPKLLEEEEQEEESFEIEVRKTPSAEEPKEETPFQSFQLPESSETERKETDAVPRVAPAAETKEPQTKESDNSLYLTKLFTKEADEFSRMKICIVQQEDTIERLCERYEITSQQLIRMNSLALDDELKAGQILYIPQYKNSHA
Q: B1 was tested. Which binding did it give?
A: binds

B2: MurG (enzyme, UniProt P37585 1-363)
chain: MRIAISGGGTGGHIYPALAFIKEVQRRHPNVEFLYIGTENGLEKKIVERENIPFRSIEITGFKRKLSFENVKTVMRFLKGVKKSKSYLAEFKPDAVIGTGGYVCGPVVYAAAKMGIPTIVHEQNSLPGITNKFLSKYVNKVAICFEEAKSHFPSEKVVFTGNPRASEVVSIKTGRSLAEFGLSEDKKTVLIFGGSRGAAPINRAVIDMQDVLKTRDYQVLYITGEVHYEKVMNELKSKGAADNMVTKPFLHQMPEYLKAIDVIVARAGATTIAEITALGIPSVLIPSPYVTANHQEVNARSLGQHDAAIVLKETELSGEKLIEALDRIVLNEQTLKEMSERTKSLGVPDAAARLYSVLEELKK
Q: Which binding does the source give for B2 here?
A: binds

Results are given in words; binding and its absence hold for the method and conditions named. In cells and extracts the contact can be indirect. A yes stands for co-enrichment or nearness to the bait. Other partners may have been found. Tags and fused reporters may be left off the sequences shown.
